According to patent US20250145665A1, “MACROCYCLIC PEPTIDES USEFUL AS MODULATORS OF TNF ALPHA” (Bristol-Myers Squibb Company, priority 2023, published 2025):
Read-outs that look alike come from different tables or passages of the source. Some entries share one result that the patent states for a list of compounds. Starred links: 1 amine or outer side, 2 acyl side, 3 side chain; linkers in the order of their positions; H or OH if unused. Positions of bridges follow the written chain, without caps; N, C: chain ends. Non-standard residues stand in square brackets, D forms with d. Residues, ends and D or L forms follow the SMILES beside them. *: point of attachment. X5 = Cn1nc(C(=O)Nc2ccc(-c3ccc(C[C@H](N[*:1])C(=O)[*:2])cc3)cc2)c2ccccc21; dArg(Nω-CH2C6H4-3-CH2Gua) = N=C(N)NCc1cccc(CNC(=N)NCCC[C@@H](N)C(=O)O)c1; Bip(4'-NHBz) = N[C@@H](Cc1ccc(-c2ccc(NC(=O)c3ccccc3)cc2)cc1)C(=O)O; dArg(ω-(2S)-2,3-diOHpropyl) = N=C(NCCC[C@@H](N)C(=O)O)NC[C@H](O)CO; Bip(4'-NH) = O=C([C@H](Cc1ccc(-c2ccc(N[*:3])cc2)cc1)N[*:1])[*:2]; dArg(ω-(3-HO-benzyl)) = N=C(NCCC[C@@H](N)C(=O)O)NCc1cccc(O)c1; dArg(ω-Bn(3-CH2OH)) = N=C(NCCC[C@@H](N)C(=O)O)NCc1cccc(CO)c1; Indazole3carbonyl(1-CH2COOH) = O=C(O)Cn1nc(C(=O)*)c2ccccc21; X72 = N=C(N)Nc1ccc(CCNC(=N)NCCC[C@@H](N[*:1])C(=O)[*:2])cc1; Bip(4'-COOH) = N[C@@H](Cc1ccc(-c2ccc(C(=O)O)cc2)cc1)C(=O)O; X25 = N=C(N)Nc1cccc(CNC(=N)NCCC[C@@H](N[*:1])C(=O)[*:2])c1; X1 = N=C(NCCC[C@@H](N[*:1])C(=O)[*:2])NCCc1ccc2ccccc2c1; X19 = N=C(NCCC[C@@H](N[*:1])C(=O)[*:2])NCc1ccc2ccccc2c1; Ala(morpholin-4-yl) = N[C@@H](CN1CCOCC1)C(=O)O; Phe(3-CONH2) = NC(=O)c1cccc(C[C@H](N)C(=O)O)c1; Bip = N[C@@H](Cc1ccc(-c2ccccc2)cc1)C(=O)O; 2Pal = N[C@@H](Cc1ccccn1)C(=O)O; Cha = N[C@@H](CC1CCCCC1)C(=O)O; X62 = COC(=O)Cc1cccc(C(=O)*)c1; Tle = CC(C)(C)[C@H](N)C(=O)O; Aze = O=C(O)[C@@H]1CCN1; Sar = CNCC(=O)O

Chains of the proteins cited; added tags and fusions are not shown. Residues count along the entry.
UniProt P01375, 77-233 limits assumed: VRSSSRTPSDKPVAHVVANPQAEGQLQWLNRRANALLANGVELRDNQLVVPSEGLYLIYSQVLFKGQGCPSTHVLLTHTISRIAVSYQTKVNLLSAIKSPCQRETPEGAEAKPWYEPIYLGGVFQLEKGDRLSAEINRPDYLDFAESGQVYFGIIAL

Target: TNFα (Homo sapiens, UniProt P01375)
Assay: TNF-Induced HEK-Blue Assay
Format: cell-based
Details: read-out: IC50 values measured in the TNF induced HEK-Blue assay
[1] = summary statement for all examples

| Structure (SMILES) | IC50 | IC50 [1] |
| --- | --- | --- |
| CC(C)C[C@@H]1NC(=O)[C@H](CCCNC(=N)N)NC(=O)[C@H](C(C)C)NC(=O)[C@@H]2CCCN2C(=O)[C@H](C(C)C)NC(=O)[C@@H](CCCNC(=N)NCc2ccc3ccccc3c2)NC(=O)[C@H](CC(=O)O)NC(=O)[C@@H]2CCCN2C(=O)CN(C)C(=O)[C@H](Cc2ccc(-c3ccc(NC(=O)c4nn(C)c5ccccc45)cc3)cc2)NC(=O)[C@H](Cc2ccc(-c3ccccc3)cc2)NC(=O)[C@H](CN2CCOCC2)NC(=O)CSC[C@@H](C(=O)NCC(N)=O)NC1=O [Example 472] ({CH2CO}-[Ala(morpholin-4-yl)][Bip][X5][Sar]PD[X19]VPVRLCG-NH2; thioether N-13) | ≤ 25 µM | – |
| CC(C)C[C@@H]1NC(=O)[C@H](CCCNC(=N)N)NC(=O)[C@H](C(C)C)NC(=O)[C@@H]2CCCN2C(=O)[C@H](C(C)C)NC(=O)[C@@H](CCCNC(=N)NCCc2ccc3ccccc3c2)NC(=O)[C@H](CC(=O)O)NC(=O)[C@@H]2CCCN2C(=O)CN(C)C(=O)[C@H](Cc2ccc(-c3ccc(NC(=O)c4nn(CC(=O)O)c5ccccc45)cc3)cc2)NC(=O)[C@H](Cc2ccc(-c3ccccc3)cc2)NC(=O)[C@H](CN2CCOCC2)NC(=O)CSC[C@@H](C(=O)NCC(N)=O)NC1=O [Example 433] ({CH2CO}-[Ala(morpholin-4-yl)][Bip][Bip(4'-NH)](Indazole3carbonyl(1-CH2COOH))[Sar]PD[X1]VPVRLCG-NH2; thioether N-13) | – | ≤ 25 µM |
| CC(C)C[C@@H]1NC(=O)[C@H](CCCNC(=N)N)NC(=O)[C@H](C(C)C)NC(=O)[C@@H]2CCCN2C(=O)[C@H](C(C)C)NC(=O)[C@@H](CCCNC(=N)NCc2cccc(CNC(=N)N)c2)NC(=O)[C@H](CC(=O)O)NC(=O)[C@@H]2CCCN2C(=O)CN(C)C(=O)[C@H](Cc2ccc(-c3ccc(NC(=O)c4nn(CC(=O)O)c5ccccc45)cc3)cc2)NC(=O)[C@H](Cc2ccc(-c3ccccc3)cc2)NC(=O)[C@H](CN2CCOCC2)NC(=O)CSC[C@@H](C(=O)NCC(N)=O)NC1=O [Example 512] ({CH2CO}-[Ala(morpholin-4-yl)][Bip][Bip(4'-NH)](Indazole3carbonyl(1-CH2COOH))[Sar]PD[dArg(Nω-CH2C6H4-3-CH2Gua)]VPVRLCG-NH2; thioether N-13) | – | ≤ 25 µM |
| CC(C)C[C@@H]1NC(=O)[C@H](CCCNC(=N)N)NC(=O)[C@H](C(C)C)NC(=O)[C@@H]2CCCN2C(=O)[C@H](C(C)C)NC(=O)[C@@H](CCCNC(=N)NCCc2ccc(NC(=N)N)cc2)NC(=O)[C@H](CC(=O)O)NC(=O)[C@@H]2CCCN2C(=O)CN(C)C(=O)[C@H](Cc2ccc(-c3ccc(NC(=O)c4nn(CC(=O)O)c5ccccc45)cc3)cc2)NC(=O)[C@H](Cc2ccc(-c3ccccc3)cc2)NC(=O)[C@H](CN2CCOCC2)NC(=O)CSC[C@@H](C(=O)NCC(N)=O)NC1=O [Example 436] ({CH2CO}-[Ala(morpholin-4-yl)][Bip][Bip(4'-NH)](Indazole3carbonyl(1-CH2COOH))[Sar]PD[X72]VPVRLCG-NH2; thioether N-13) | – | ≤ 25 µM |
| CC(C)C[C@@H]1NC(=O)[C@H](Cc2cnc[nH]2)NC(=O)[C@H](C(C)C)NC(=O)[C@@H]2CCCN2C(=O)[C@H](C(C)C)NC(=O)[C@@H](CCCNC(=N)NCc2cccc(O)c2)NC(=O)[C@H](CC(=O)O)NC(=O)[C@H](Cc2ccccn2)NC(=O)CN(C)C(=O)[C@H](Cc2ccc(-c3ccc(NC(=O)c4nn(CC(=O)O)c5ccccc45)cc3)cc2)NC(=O)[C@H](Cc2ccc(-c3ccccc3)cc2)NC(=O)[C@H](CN2CCOCC2)NC(=O)CSC[C@@H](C(=O)NCC(N)=O)NC1=O [Example 624] ({CH2CO}-[Ala(morpholin-4-yl)][Bip][Bip(4'-NH)](Indazole3carbonyl(1-CH2COOH))[Sar][2Pal]D[dArg(ω-(3-HO-benzyl))]VPVHLCG-NH2; thioether N-13) | – | ≤ 25 µM |
| CC[C@H](C)[C@@H]1NC(=O)[C@@H](CCCNC(=N)N)NC(=O)[C@H](CC(=O)O)NC(=O)[C@H](Cc2cnc[nH]2)NC(=O)CN(C)C(=O)[C@H](Cc2ccc(-c3ccc(NC(=O)c4cccc(CC(=O)OC)c4)cc3)cc2)NC(=O)[C@H](Cc2ccc(-c3ccc(C(=O)O)cc3)cc2)NC(=O)[C@H](CC2CCCCC2)NC(=O)CSC[C@@H](C(=O)NCC(N)=O)NC(=O)[C@H](CC(C)C)NC(=O)[C@H](Cc2c[nH]cn2)NC(=O)[C@H](C(C)C)NC(=O)[C@@H]2CCCN2C1=O [Example 503] ({CH2CO}-[Cha][Bip(4'-COOH)][Bip(4'-NH)](X62)[Sar]HD[dR]IPVHLCG-NH2; thioether N-13) | – | ≤ 25 µM |
| CC[C@H](C)[C@@H]1NC(=O)[C@@H]2CCCN2C(=O)[C@H]([C@@H](C)CC)NC(=O)[C@@H](CCCNC(=N)N)NC(=O)[C@H](CC(=O)O)NC(=O)[C@H](Cc2ccccc2)NC(=O)CN(C)C(=O)[C@H](Cc2ccc(-c3ccc(NC(=O)c4ccccc4)cc3)cc2)NC(=O)[C@H](Cc2ccc(-c3ccc(C(=O)O)cc3)cc2)NC(=O)[C@H](C(C)(C)C)NC(=O)CSC[C@@H](C(=O)NCC(N)=O)NC(=O)[C@H](CC(C)C)NC(=O)[C@H](Cc2cnc[nH]2)NC1=O [Example 350] ({CH2CO}-[Tle][Bip(4'-COOH)][Bip(4'-NHBz)][Sar]FD[dR]IPIHLCG-NH2; thioether N-13) | – | ≤ 25 µM |
| CC[C@H](C)[C@@H]1NC(=O)[C@@H](CCCNC(=N)NCc2cccc(CO)c2)NC(=O)[C@H](CC(=O)O)NC(=O)[C@H](Cc2cnc[nH]2)NC(=O)CN(C)C(=O)[C@H](Cc2ccc(-c3ccc(NC(=O)c4nn(C)c5ccccc45)cc3)cc2)NC(=O)[C@H](Cc2ccc(-c3ccccc3)cc2)NC(=O)[C@H](CC2CCCCC2)NC(=O)CSC[C@@H](C(=O)NCC(N)=O)NC(=O)[C@H](CC(C)C)NC(=O)[C@H](Cc2cnc[nH]2)NC(=O)[C@H](C(C)C)NC(=O)[C@@H]2CCCN2C1=O [Example 478] ({CH2CO}-[Cha][Bip][X5][Sar]HD[dArg(ω-Bn(3-CH2OH))]IPVHLCG-NH2; thioether N-13) | ≤ 25 µM | – |
| CC(C)C[C@@H]1NC(=O)[C@H](CCCNC(=N)N)NC(=O)[C@H](C(C)C)NC(=O)[C@@H]2CCCN2C(=O)[C@H](C(C)C)NC(=O)[C@@H](CCCNC(=N)NCc2cccc(CO)c2)NC(=O)[C@H](CC(=O)O)NC(=O)[C@@H]2CCCN2C(=O)CN(C)C(=O)[C@H](Cc2ccc(-c3ccc(NC(=O)c4nn(C)c5ccccc45)cc3)cc2)NC(=O)[C@H](Cc2ccc(-c3ccccc3)cc2)NC(=O)[C@H](CN2CCOCC2)NC(=O)CSC[C@@H](C(=O)NCC(N)=O)NC1=O [Example 448] ({CH2CO}-[Ala(morpholin-4-yl)][Bip][X5][Sar]PD[dArg(ω-Bn(3-CH2OH))]VPVRLCG-NH2; thioether N-13) | ≤ 25 µM | – |
| CC(C)C[C@@H]1NC(=O)[C@H](CCCNC(=N)N)NC(=O)[C@H](C(C)C)NC(=O)[C@@H]2CCCN2C(=O)[C@H](C(C)C)NC(=O)[C@@H](CCCNC(=N)NCc2cccc(NC(=N)N)c2)NC(=O)[C@H](CC(=O)O)NC(=O)[C@@H]2CCCN2C(=O)CN(C)C(=O)[C@H](Cc2ccc(-c3ccc(NC(=O)c4nn(C)c5ccccc45)cc3)cc2)NC(=O)[C@H](Cc2ccc(-c3ccccc3)cc2)NC(=O)[C@H](CN2CCOCC2)NC(=O)CSC[C@@H](C(=O)NCC(N)=O)NC1=O [Example 438] ({CH2CO}-[Ala(morpholin-4-yl)][Bip][X5][Sar]PD[X25]VPVRLCG-NH2; thioether N-13) | ≤ 25 µM | – |
| CC(C)C[C@@H]1NC(=O)[C@H](Cc2cccc(C(N)=O)c2)NC(=O)[C@H](C(C)C)NC(=O)[C@@H]2CCCN2C(=O)[C@H](C(C)C)NC(=O)[C@@H](CCCNC(=N)NC[C@H](O)CO)NC(=O)[C@H](CC(=O)O)NC(=O)[C@H](Cc2ccc(O)cc2)NC(=O)CN(C)C(=O)[C@H](Cc2ccc(-c3ccc(NC(=O)c4nn(CC(=O)O)c5ccccc45)cc3)cc2)NC(=O)[C@H](Cc2ccc(-c3ccccc3)cc2)NC(=O)[C@H](CN2CCOCC2)NC(=O)CSC[C@@H](C(=O)NCC(N)=O)NC1=O [Example 546] ({CH2CO}-[Ala(morpholin-4-yl)][Bip][Bip(4'-NH)](Indazole3carbonyl(1-CH2COOH))[Sar]YD[dArg(ω-(2S)-2,3-diOHpropyl)]VPV[Phe(3-CONH2)]LCG-NH2; thioether N-13) | – | ≤ 25 µM |
| CC(C)C[C@@H]1NC(=O)[C@H](Cc2cnc[nH]2)NC(=O)[C@H](C(C)C)NC(=O)[C@@H]2CCCN2C(=O)[C@H](C(C)C)NC(=O)[C@@H](CCCNC(=N)N)NC(=O)[C@H](CC(=O)O)NC(=O)[C@H](Cc2ccccc2)NC(=O)CN(C)C(=O)[C@H](Cc2ccc(-c3ccc(NC(=O)c4ccccc4)cc3)cc2)NC(=O)[C@H](Cc2ccc(-c3ccccc3)cc2)NC(=O)[C@H](CN2CCOCC2)NC(=O)CSC[C@@H](C(=O)NCC(N)=O)NC1=O [Example 491] ({CH2CO}-[Ala(morpholin-4-yl)][Bip][Bip(4'-NHBz)][Sar]FD[dR]VPVHLCG-NH2; thioether N-13) | – | ≤ 25 µM |
| CC(C)C[C@@H]1NC(=O)[C@H](CCCNC(=N)N)NC(=O)[C@H](C(C)C)NC(=O)[C@@H]2CCCN2C(=O)[C@H](C(C)C)NC(=O)[C@@H](CCCNC(=N)NCc2cccc(CO)c2)NC(=O)[C@H](CC(=O)O)NC(=O)[C@@H]2CCCN2C(=O)CN(C)C(=O)[C@H](Cc2ccc(-c3ccc(NC(=O)c4nn(CC(=O)O)c5ccccc45)cc3)cc2)NC(=O)[C@H](Cc2ccc(-c3ccccc3)cc2)NC(=O)[C@H](CN2CCOCC2)NC(=O)CSC[C@@H](C(=O)NCC(N)=O)NC1=O [Example 425] ({CH2CO}-[Ala(morpholin-4-yl)][Bip][Bip(4'-NH)](Indazole3carbonyl(1-CH2COOH))[Sar]PD[dArg(ω-Bn(3-CH2OH))]VPVRLCG-NH2; thioether N-13) | – | ≤ 25 µM |
| CC[C@H](C)[C@@H]1NC(=O)[C@@H]2CCN2C(=O)[C@H]([C@@H](C)CC)NC(=O)[C@@H](CCCNC(=N)N)NC(=O)[C@H](CC(=O)O)NC(=O)[C@H](Cc2ccc(O)cc2)NC(=O)CN(C)C(=O)[C@H](Cc2ccc(-c3ccc(NC(=O)c4ccccc4)cc3)cc2)NC(=O)[C@H](Cc2ccc(-c3ccccc3)cc2)NC(=O)[C@H](C(C)(C)C)NC(=O)CSC[C@@H](C(=O)NCC(N)=O)NC(=O)[C@H](CC(C)C)NC(=O)[C@H](Cc2ccc(O)cc2)NC1=O [Example 376] ({CH2CO}-[Tle][Bip][Bip(4'-NHBz)][Sar]YD[dR]I[Aze]IYLCG-NH2; thioether N-13) | – | ≤ 25 µM |
